In paper PMC6072134:
Results are given in words; binding and its absence hold for the method and conditions named. Binding seen in cells or lysates may run through a third protein. Some entries that bind do so weakly or less than the wild type. Where a sequence is shown, tags or fusion partners need not be part of it. One block for each molecule: values may come before it.

Protein sequences, listed by entry. Tags and fused reporters are not part of them.
UniProt O17695: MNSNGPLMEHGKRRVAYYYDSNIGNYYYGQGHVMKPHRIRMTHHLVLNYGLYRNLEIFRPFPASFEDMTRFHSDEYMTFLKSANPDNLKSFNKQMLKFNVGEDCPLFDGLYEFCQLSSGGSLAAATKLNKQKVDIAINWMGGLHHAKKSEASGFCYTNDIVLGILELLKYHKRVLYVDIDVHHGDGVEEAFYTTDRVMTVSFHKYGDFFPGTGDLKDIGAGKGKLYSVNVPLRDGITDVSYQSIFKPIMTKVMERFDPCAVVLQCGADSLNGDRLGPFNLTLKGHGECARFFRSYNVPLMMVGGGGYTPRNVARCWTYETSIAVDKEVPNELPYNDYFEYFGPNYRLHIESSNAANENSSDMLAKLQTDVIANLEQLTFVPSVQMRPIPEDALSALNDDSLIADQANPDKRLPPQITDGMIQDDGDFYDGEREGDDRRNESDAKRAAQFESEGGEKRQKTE
UniProt G5EBZ4: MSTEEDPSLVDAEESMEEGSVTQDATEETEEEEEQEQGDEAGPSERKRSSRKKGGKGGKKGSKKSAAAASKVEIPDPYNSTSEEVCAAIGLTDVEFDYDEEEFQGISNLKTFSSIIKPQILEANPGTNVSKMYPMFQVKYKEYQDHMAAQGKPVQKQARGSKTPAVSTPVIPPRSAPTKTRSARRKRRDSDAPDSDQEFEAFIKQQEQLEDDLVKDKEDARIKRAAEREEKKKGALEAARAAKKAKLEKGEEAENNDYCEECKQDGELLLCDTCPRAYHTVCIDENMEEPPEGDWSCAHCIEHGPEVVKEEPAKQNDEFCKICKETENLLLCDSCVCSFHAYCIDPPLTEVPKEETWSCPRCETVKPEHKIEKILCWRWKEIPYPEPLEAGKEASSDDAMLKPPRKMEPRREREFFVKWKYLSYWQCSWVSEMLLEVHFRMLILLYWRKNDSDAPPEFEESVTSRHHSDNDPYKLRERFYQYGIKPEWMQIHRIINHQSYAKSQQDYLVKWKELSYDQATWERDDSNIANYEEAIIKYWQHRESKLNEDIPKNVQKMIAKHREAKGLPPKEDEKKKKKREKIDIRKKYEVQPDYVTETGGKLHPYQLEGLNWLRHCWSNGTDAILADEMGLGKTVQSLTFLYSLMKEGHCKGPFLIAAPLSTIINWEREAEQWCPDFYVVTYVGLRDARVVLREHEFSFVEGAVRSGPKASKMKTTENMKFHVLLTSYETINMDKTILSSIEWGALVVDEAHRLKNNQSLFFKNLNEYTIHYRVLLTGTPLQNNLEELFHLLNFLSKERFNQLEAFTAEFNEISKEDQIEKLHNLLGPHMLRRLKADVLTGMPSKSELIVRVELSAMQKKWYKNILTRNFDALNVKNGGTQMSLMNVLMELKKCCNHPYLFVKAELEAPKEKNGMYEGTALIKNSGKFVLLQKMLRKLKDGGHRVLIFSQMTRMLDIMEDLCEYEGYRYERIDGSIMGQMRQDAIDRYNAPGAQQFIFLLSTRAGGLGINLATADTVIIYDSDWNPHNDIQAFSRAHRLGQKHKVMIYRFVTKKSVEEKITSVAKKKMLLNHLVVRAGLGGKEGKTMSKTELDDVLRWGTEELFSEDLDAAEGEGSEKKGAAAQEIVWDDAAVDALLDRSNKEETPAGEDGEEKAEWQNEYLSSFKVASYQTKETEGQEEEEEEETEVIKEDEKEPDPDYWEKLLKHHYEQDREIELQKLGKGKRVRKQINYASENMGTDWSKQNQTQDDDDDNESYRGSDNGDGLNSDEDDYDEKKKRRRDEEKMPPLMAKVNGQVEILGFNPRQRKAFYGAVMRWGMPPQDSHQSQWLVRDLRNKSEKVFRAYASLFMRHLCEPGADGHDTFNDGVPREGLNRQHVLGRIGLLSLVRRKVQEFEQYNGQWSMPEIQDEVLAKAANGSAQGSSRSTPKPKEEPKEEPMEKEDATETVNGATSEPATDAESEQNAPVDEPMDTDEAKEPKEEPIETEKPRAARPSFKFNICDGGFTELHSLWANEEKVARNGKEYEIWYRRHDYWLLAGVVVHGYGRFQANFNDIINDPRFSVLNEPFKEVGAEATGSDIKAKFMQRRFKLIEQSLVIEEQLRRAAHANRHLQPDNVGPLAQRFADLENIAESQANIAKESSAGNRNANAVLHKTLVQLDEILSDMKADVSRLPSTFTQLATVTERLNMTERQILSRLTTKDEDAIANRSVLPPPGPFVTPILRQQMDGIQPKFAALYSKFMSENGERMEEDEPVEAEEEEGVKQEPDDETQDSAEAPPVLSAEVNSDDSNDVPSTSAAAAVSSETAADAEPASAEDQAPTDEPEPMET

What was measured:
AKIR-1::GFP (C. elegans) = biological target: T1, AKIR-1::GFP (C. elegans) (UniProt Q966L3); assay: co-IP; complexes immunopurified with an anti-GFP antibody from control or D. coniospora-infected worms expressing AKIR-1::GFP (the strain used for mass spectrometry and the single copy insertion strain); Western blot with anti-HDA-1 and anti-LET-418
T1 sequence: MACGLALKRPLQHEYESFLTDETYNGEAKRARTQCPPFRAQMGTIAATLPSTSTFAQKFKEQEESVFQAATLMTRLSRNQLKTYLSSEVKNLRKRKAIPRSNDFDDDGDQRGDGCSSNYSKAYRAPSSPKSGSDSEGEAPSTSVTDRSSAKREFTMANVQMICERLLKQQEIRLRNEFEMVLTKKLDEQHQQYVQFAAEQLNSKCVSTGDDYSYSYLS

[1] = biological target: T2, CEH-18::TY1::GFP::3xFLAG (C. elegans) (UniProt P41934); assay: co-IP; anti-FLAG (M2) immunoprecipitation from lysate of mixed-stage IG1665 worms co-expressing AKIR-1::GFP and CEH-18::TY1::GFP::3xFLAG, 200 μg of total protein, Dynabeads Protein G; anti-HA as unrelated control antibody; Western blot with anti-FLAG and anti-GFP
T2 sequence: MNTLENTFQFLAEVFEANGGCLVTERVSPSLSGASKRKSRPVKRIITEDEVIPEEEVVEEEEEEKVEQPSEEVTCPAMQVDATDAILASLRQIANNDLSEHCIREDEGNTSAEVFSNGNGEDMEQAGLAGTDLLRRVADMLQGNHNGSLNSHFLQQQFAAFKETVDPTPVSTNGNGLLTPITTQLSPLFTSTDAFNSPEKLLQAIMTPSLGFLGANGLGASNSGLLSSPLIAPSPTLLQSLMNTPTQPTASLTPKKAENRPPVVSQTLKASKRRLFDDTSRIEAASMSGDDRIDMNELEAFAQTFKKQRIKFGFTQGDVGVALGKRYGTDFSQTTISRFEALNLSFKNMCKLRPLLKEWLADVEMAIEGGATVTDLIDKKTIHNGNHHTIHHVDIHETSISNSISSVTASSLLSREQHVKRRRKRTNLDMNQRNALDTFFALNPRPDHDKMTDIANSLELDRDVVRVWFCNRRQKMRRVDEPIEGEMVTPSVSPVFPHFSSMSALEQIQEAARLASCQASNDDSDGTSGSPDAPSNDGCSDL

binding (AKIR-1::GFP (C. elegans)): binds
Molecule: HDA-1 (from UniProt O17695 1-461)

binding (AKIR-1::GFP (C. elegans)): binds
Molecule: LET-418 (from UniProt G5EBZ4 1-1829)

binding [1]: binds
B1: AKIR-1::GFP (protein, UniProt Q966L3 1-218)
chain: T1 sequence
